Earlier results as cited in patent US20120190752A1, “EXO-S-MECAMYLAMINE METHOD, USE, AND COMPOUND FOR TREATMENT” (Targacept Inc., priority 2009, published 2012).
For at least one compound, name, drawing or mass did not settle the structure.

System: MDD
Settings: STAR*D; SSRI regimen of citalopram alone; cited from earlier work

Compound: CN(C)CCCC1(c2ccc(F)cc2)OCc2cc(C#N)ccc21 (stereo not shown) [citalopram]
- participants who did not achieve remission following initial treatment: Approximately 63%
